## Library screen at single concentrations

The chains behind the UniProt entries cited, without tags or fusion partners. Residues count along the entry.
UniProt I6X8D2, whole entry: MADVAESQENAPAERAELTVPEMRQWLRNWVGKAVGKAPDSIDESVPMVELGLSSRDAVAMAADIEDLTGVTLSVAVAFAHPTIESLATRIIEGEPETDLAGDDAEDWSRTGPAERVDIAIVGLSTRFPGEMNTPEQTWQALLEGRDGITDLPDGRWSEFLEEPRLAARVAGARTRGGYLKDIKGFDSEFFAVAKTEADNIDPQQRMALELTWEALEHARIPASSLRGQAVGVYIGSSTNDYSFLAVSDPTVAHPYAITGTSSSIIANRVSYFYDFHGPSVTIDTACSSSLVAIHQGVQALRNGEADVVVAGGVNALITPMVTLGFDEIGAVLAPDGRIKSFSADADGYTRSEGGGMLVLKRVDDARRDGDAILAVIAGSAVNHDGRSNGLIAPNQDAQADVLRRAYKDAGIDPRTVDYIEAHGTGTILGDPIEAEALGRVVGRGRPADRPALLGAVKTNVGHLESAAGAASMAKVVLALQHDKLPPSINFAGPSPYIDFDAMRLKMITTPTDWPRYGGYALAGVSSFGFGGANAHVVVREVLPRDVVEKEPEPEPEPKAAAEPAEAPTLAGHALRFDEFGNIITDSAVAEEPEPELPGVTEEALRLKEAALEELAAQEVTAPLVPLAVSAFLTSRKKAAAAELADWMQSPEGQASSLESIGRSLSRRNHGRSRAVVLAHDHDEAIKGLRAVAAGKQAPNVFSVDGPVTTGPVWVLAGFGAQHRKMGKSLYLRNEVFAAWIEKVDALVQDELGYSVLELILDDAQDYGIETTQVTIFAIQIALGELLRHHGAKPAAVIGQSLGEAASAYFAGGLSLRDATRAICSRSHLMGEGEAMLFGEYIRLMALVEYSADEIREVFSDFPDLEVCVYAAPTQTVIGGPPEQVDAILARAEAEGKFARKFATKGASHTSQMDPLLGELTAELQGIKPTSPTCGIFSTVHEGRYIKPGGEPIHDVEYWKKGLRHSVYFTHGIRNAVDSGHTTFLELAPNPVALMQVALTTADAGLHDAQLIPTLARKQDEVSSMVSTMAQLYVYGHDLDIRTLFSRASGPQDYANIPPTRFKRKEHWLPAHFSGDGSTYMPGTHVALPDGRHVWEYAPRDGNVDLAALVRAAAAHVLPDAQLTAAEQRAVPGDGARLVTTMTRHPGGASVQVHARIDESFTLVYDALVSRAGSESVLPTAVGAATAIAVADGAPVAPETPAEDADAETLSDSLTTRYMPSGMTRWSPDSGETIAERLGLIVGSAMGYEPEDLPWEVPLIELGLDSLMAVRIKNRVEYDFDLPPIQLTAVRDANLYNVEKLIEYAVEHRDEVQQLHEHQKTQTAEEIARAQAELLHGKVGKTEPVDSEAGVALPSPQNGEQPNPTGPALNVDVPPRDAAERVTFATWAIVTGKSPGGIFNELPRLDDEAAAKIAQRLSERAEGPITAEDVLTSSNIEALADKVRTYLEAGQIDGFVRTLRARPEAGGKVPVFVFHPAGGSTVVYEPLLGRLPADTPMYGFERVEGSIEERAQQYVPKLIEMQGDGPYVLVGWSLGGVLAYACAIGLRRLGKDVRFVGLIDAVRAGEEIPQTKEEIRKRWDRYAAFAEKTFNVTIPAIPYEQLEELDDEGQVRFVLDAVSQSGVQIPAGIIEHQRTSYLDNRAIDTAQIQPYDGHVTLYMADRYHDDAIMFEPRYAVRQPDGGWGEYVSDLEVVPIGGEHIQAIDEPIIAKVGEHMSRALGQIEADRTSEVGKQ
UniProt P9WNZ1, whole entry: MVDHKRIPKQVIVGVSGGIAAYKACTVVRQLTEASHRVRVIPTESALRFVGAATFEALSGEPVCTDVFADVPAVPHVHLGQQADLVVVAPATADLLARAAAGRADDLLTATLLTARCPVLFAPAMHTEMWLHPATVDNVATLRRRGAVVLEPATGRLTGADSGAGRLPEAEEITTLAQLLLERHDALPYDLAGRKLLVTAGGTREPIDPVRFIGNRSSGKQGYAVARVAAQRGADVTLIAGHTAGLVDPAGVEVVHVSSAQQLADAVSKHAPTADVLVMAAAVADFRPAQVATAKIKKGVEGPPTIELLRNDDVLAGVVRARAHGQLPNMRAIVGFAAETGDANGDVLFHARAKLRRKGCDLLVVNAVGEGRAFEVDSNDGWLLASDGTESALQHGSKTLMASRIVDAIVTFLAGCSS
UniProt Q8IDJ8, 1-583: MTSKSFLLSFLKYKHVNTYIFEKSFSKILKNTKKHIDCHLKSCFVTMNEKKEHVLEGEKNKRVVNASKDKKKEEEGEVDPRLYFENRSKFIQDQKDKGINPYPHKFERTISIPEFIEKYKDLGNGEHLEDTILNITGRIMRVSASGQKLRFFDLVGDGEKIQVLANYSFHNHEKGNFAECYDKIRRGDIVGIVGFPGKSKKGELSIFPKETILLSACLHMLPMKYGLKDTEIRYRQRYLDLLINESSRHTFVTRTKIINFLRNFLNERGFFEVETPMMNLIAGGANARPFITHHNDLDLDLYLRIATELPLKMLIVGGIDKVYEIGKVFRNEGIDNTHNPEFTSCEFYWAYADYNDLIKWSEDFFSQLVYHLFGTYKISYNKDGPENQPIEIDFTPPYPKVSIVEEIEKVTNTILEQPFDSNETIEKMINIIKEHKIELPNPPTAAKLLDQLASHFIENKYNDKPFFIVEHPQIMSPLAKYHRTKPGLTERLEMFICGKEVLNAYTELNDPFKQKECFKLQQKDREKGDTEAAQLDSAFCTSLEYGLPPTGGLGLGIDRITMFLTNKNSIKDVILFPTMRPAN
UniProt Q4DA54, 1-478: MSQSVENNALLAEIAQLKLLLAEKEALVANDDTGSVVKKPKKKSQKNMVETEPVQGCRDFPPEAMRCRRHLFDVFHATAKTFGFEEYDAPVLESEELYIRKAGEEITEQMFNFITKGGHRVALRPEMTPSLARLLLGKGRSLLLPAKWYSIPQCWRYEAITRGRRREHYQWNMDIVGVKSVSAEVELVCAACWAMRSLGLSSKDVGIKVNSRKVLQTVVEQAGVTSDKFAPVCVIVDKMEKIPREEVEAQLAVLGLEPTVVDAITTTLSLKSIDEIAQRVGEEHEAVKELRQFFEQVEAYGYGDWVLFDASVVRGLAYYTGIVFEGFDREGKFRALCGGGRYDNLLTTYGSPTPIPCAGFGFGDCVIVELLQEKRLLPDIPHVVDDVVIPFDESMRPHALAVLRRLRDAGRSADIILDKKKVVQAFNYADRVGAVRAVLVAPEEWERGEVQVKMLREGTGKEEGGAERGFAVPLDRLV

A: 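Enzyme assay of the thioesterase domain of polyketide synthase 13; the read-out is not stated. Target: Polyketide synthase Pks13, Mycobacterium tuberculosis (UniProt I6X8D2). Compounds at 30 µM. Higher reads as stronger inhibition (inferred from which compounds were picked for retests). About 67,000 compounds were tested under these conditions; 0.46% (about 300) showed 50% or more at least once.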
B: 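Coenzyme A biosynthesis protein CoaBC, Mycobacterium tuberculosis (UniProt P9WNZ1). Enzyme assay of CoaBC with a phosphate dye (Biomol Green) read at 650 nm. Concentration: 30 µM. Higher reads as stronger inhibition, judged from the few compounds that gave an IC50. Most strong results did not repeat in a second test. Of about 67,000 compounds tested this way, about 40 (0.06%) reached 50% or more in at least one test.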
C: 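Lysine-tRNA ligase, Plasmodium falciparum 3D7 (UniProt Q8IDJ8). Enzyme assay of the cytosolic lysyl-tRNA synthetase in 384-well plates, read by luminescence. Concentration: 30 µM. Higher reads as stronger inhibition, judged from the few compounds that gave an IC50. About 69,000 compounds were tested under these conditions; 0.071% (about 49) showed 50% or more at least once.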
D: 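Enzyme assay of histidyl-tRNA synthetase; the read-out is not stated. Target: Histidine-tRNA ligase, Trypanosoma cruzi CL Brener (UniProt Q4DA54). Tested at 30 µM. The record gives no direction; compounds that gave an IC50 in retests scored well above the rest, so higher reads as stronger inhibition. Of about 69,000 compounds tested this way, about 31 (0.045%) reached 50% or more in at least one test.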

Each number is a percent effect as filed. The record does not define 0% and 100%; most values in the screen are far below 50% and negative numbers occur (in some assays of this library far below -100). Compounds were drawn at random from those tested, without regard to their results. A dash means the value is not listed here; it may have been measured.

SMILES	A	B	C	D
CNC(=O)Cc1ccccc1NC(=O)C1CCCC1	-8.664%	-	-2.711%	-3.896%
CC(C)c1nn(C)c(N(C)C)c1CNC(C)c1ccccc1F (stereo unspecified)	-16.52%	3.742%	-0.3031%	3.448%
Cc1csc(CN2CC[C@H]3C[C@H](c4nc(C)no4)O[C@@H]3C2)n1	-0.8478%	-2.836%	0.9326%	2.632%
Cc1nc(CN2CCCCC2CCc2ccc(O)cc2)co1 (stereo unspecified)	-8.191%	7.006%	1.401%	4%
Cc1ccc(C2CCCCCN2CCCS(C)(=O)=O)o1 (stereo unspecified)	4.117%	1.463%	2.121%	3.922%
Cc1cc(C)c(CN2CCCC23Cc2ccccc2CNC3=O)c(C)c1 (stereo unspecified)	-5.613%	-3.947%	4.412%	0.5917%
CCCN1CCN(C(=O)C(C)n2cc(Br)cn2)CC1 (stereo unspecified)	-7.886%	8.182%	5.778%	-0.8368%
Cc1cc(C2CCCN2C(=O)CN2CC3(CCNCC3)OC2=O)on1 (stereo unspecified)	3.959%	-1.288%	4.928%	0%
CC(C)CN1C(=O)CC[C@H]2CN(C(=O)c3ncc[nH]3)CC[C@H]21	0.4279%	-5.785%	2.635%	6.358%
O=C(c1cn(-c2cc(N3CCOCC3)ncn2)cn1)N1CCSCC1	0.1224%	3.625%	1.148%	1.653%
N#Cc1cccnc1N1CCCN(C(=O)CCc2cccs2)CC1	-14.63%	-10.92%	1.397%	2.222%
COc1ccc(CN2C[C@H]3CN(c4cncnc4)C(=O)[C@H]3C2)cc1	-33.09%	-3.752%	6.64%	4.95%
O=C1CO[C@@H]2CNC[C@H]2N1CC1CC1	-	0%	3.833%	-3.093%
Cc1nc(CN2CCC3(CCCN(Cc4cccnc4)C3)C2=O)cs1 (stereo unspecified)	-	-4.316%	-0.684%	2.857%
Fc1ccc(CN2CCCC(c3nccnc3-n3ccnc3)C2)cc1 (stereo unspecified)	-4.882%	3.098%	1.377%	7.491%
CCN(C(C)=O)C(c1cccnc1)c1cc(C)cc(C)c1 (stereo unspecified)	22.36%	5.511%	-2.016%	-14.14%
Cc1ccc(-c2cn3c(n2)CO[C@@H](CNCc2cccnc2)C3)cc1	-8.822%	11.26%	-3.607%	1.087%
COc1ccc(CN2C[C@@H]3COC[C@@H](N4CCN(C)CC4)[C@@H]3C2)cc1	-10.81%	0.8653%	3.916%	11.22%
O=C1CC(N2CCN(c3ccc(O)cc3)CC2)C(=O)N1Cc1cccs1 (stereo unspecified)	8.186%	-8.277%	4.939%	9.278%
Cc1nc(-c2cnn(C)c2)sc1C(=O)NCc1cccc(CN(C)C)c1	-5.457%	-22.2%	2.104%	25.86%
CN1CCCN(c2ccc(F)cc2CNC(=O)c2cccnc2)CC1	-2.578%	-1.284%	-9.938%	6.087%
CN(C)S(=O)(=O)N1C[C@H]2CCC[C@@]2(COCC2CCOCC2)C1	33.02%	-2.439%	-5.617%	4.902%
CC(C)Nc1nnc(SCc2nnc(C(C)(C)C)o2)s1	17.87%	3.398%	4.806%	10.5%
O=C(CN1CC(n2cccn2)C1)NCCc1ccc(F)cc1	-1.091%	8.991%	2.935%	4.651%
Cc1ccc(C(=O)Nc2cc(F)ccc2OCC2CCCO2)cn1 (stereo unspecified)	-	14.9%	10.26%	-5.882%
O=C(COC1CCCCC1)N1CCN(C(=O)Cc2ccccn2)CC1	-3.787%	-0.5894%	9.225%	15.52%
Cc1cccc(CNC(=O)CC2CCN(Cc3ccccn3)CC2)n1	11.01%	1.214%	1.479%	5.747%
Cc1cccc(CN(Cc2ccc(C)o2)C2CC(C)(C)NC(C)(C)C2)n1	-36.41%	0.5556%	5.833%	1.622%
c1ccc2c(c1)CC(N1CCCC(NCc3cccc4nonc34)C1)C2 (stereo unspecified)	-4.335%	2.439%	-0.2777%	6.863%
O=C(O)[C@]12CCCN(Cc3ccoc3)C[C@H]1CN(c1ncccn1)C2	-28.05%	-3.226%	4.611%	2.488%
CNC(=O)C1CN(c2ncccn2)CCN1Cc1ccccc1 (stereo unspecified)	0.5091%	-5.583%	1.549%	1.149%
COCC1CC2(CCN(c3ccc(C)nn3)CC2)CN1C(C)C (stereo unspecified)	-7.041%	5.322%	2.555%	-1.508%
Cc1csc2c(N3CCC(NCCc4ccnn4C)CC3)ncnc12	2.739%	2.533%	5.135%	0.5025%
c1cnn([C@@H]2CN(Cc3nccs3)[C@@H]3CCCO[C@@H]32)c1	-44.03%	2.083%	4.553%	4.813%
COCCCn1ccc(NC(=O)NCCc2cccnc2)n1	-25.25%	13.41%	1.343%	6.186%
CC1CS(=O)(=O)CCN1CCCc1ccc(C(F)(F)F)cc1 (stereo unspecified)	-8.212%	6.674%	-1.326%	4.167%
Cc1ccc(N2CCO[C@H]3CN(Cc4ccncc4)C[C@H]32)nn1	-4.457%	7.712%	5.554%	1.657%
CCn1cncc1CN(Cc1ccc(OC)cc1OC)CC1CCCO1 (stereo unspecified)	-46.07%	2.451%	3.816%	8.511%
CC(=O)N1CCC(N2C[C@@H](F)[C@@H](OCc3nc4ncccc4[nH]3)C2)CC1	-32.14%	10.82%	7.945%	5.435%
Cc1nc(Cn2c3c(ccc2=O)CCN(CC2CC2)CC3)cs1	-34.4%	-4.583%	3.231%	4.813%
CC(C)c1cccc(-n2cc(O)c(C(=O)NCCCn3cccn3)n2)c1	13.97%	4.412%	1.016%	9.524%
CCC1(O)CCCN(c2nc(C(C)(C)C)nc3c2cnn3C)C1 (stereo unspecified)	-17.35%	9.6%	3.244%	4.598%
O=C1[C@@H]2CCN(Cc3ccoc3)C[C@@H]2OCCN1c1ccccc1	-26.77%	2.073%	-3.754%	-4.918%
CCC1CCN(CCn2cnc3c(C)csc3c2=O)CC1	-32.85%	-2.195%	2.14%	6.494%
Cn1c(Cn2ccnc2)nnc1C1CCN(C(=O)c2ccoc2)CC1	-5.091%	2.746%	0.1262%	9.045%

The values are deposited in ChEMBL (CHEMBL3988442, “University of Dundee, Small-Polar-MMV Screening Library” (2021)).